Experimental data reported in the supplement of paper PMC12067093, “Discovery and optimisation of a covalent ligand for TRIM25 and its application to targeted protein ubiquitination” (Chemical Science, 2025).
This is one part of the list.

The chains behind the UniProt entries cited, without tags or fusion partners. Where a name states a change or a piece, a line headed by the entry shows the natural chain unless it says otherwise.
UniProt Q9Y4A5, whole entry, looked up: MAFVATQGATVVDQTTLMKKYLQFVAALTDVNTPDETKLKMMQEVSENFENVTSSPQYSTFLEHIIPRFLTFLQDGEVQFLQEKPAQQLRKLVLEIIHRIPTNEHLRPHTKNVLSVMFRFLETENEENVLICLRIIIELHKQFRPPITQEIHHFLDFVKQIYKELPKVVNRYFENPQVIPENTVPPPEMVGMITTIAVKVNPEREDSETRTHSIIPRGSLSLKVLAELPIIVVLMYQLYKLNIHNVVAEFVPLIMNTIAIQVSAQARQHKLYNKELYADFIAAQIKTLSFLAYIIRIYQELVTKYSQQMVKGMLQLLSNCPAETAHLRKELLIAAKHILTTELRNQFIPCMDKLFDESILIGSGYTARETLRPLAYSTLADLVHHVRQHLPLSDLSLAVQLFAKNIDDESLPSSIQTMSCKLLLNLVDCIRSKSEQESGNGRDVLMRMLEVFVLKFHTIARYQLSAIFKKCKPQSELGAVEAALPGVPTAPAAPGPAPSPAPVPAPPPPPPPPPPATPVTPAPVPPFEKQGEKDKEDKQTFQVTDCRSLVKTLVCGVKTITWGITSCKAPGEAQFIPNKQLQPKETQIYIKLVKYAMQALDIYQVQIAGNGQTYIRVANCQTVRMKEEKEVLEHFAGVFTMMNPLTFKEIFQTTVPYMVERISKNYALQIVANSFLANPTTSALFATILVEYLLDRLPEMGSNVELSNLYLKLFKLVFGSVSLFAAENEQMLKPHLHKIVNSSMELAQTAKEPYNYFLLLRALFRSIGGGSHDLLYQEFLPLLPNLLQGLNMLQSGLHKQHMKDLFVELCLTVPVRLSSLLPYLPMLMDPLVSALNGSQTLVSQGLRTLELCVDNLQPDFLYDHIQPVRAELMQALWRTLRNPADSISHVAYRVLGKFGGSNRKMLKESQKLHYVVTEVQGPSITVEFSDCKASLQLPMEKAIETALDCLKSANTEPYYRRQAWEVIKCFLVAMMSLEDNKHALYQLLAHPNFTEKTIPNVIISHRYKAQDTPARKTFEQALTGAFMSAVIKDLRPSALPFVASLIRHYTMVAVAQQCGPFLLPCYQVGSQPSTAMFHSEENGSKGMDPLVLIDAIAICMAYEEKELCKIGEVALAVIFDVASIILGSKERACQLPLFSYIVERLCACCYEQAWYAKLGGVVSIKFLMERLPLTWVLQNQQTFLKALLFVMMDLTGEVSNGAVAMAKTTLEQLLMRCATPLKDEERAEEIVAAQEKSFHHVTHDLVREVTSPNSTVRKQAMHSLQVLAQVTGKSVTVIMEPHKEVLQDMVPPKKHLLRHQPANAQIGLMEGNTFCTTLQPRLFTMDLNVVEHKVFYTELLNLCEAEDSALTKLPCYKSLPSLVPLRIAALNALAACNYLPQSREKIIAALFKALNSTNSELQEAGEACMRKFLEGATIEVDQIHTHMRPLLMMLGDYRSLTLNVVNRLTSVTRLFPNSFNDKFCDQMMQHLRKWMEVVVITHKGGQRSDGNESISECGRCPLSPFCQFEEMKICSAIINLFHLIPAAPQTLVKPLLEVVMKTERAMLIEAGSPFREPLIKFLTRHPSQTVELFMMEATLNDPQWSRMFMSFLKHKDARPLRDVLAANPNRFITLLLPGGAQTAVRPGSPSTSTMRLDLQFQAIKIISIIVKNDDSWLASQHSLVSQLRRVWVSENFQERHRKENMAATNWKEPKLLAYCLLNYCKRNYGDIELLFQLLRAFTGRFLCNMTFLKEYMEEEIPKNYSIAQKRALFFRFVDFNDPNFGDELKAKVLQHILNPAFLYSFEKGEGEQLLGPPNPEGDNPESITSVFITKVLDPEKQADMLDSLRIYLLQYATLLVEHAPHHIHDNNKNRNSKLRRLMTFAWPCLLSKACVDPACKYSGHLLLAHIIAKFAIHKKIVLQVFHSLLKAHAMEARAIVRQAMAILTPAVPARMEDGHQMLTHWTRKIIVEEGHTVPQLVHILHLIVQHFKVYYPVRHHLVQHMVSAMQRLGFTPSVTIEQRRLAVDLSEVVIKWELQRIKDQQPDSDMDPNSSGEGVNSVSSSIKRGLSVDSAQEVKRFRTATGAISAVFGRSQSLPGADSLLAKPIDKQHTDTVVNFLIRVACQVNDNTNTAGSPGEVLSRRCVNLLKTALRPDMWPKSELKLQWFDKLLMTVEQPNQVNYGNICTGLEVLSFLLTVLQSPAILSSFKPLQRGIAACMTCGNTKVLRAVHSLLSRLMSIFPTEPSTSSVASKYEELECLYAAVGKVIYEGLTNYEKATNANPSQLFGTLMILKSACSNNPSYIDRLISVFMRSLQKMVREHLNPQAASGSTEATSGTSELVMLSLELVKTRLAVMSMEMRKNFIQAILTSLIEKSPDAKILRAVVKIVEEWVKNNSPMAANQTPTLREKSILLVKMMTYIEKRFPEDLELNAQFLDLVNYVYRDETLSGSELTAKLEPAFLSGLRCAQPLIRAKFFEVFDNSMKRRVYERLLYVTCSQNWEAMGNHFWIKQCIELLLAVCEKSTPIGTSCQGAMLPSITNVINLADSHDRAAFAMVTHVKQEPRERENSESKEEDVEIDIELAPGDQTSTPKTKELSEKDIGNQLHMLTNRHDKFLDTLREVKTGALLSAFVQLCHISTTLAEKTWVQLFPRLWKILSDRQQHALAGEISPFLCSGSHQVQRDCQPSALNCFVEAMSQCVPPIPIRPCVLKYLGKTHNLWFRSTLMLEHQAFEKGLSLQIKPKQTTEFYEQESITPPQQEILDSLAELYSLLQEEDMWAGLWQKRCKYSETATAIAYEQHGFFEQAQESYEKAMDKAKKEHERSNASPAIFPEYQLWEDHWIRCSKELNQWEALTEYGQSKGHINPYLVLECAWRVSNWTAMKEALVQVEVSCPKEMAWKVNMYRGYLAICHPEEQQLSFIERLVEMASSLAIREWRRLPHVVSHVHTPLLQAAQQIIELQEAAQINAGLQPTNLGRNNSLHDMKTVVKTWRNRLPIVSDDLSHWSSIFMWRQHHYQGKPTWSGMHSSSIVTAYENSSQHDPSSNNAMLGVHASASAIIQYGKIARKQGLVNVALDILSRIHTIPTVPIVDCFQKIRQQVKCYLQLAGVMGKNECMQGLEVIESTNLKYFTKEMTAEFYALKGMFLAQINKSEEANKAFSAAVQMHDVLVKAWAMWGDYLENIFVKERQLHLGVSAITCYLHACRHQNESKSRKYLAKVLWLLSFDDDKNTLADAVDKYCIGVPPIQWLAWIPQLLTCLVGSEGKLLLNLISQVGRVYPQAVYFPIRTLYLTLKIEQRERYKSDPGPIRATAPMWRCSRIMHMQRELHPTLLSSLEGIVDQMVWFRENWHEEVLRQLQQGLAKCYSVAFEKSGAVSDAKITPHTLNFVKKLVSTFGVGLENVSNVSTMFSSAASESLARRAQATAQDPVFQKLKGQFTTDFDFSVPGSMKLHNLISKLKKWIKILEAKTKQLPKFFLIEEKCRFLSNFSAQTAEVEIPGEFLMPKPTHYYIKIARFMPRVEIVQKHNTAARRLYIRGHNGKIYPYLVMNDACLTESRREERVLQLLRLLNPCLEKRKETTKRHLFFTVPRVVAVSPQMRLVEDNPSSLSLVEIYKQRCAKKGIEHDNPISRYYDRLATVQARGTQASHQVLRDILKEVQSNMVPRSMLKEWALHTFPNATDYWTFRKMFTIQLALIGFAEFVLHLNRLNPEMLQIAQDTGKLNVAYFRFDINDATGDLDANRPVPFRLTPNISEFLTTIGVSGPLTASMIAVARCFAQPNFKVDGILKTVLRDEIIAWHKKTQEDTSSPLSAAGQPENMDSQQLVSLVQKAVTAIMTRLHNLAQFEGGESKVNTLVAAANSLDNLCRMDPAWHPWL
UniProt Q9UNY4: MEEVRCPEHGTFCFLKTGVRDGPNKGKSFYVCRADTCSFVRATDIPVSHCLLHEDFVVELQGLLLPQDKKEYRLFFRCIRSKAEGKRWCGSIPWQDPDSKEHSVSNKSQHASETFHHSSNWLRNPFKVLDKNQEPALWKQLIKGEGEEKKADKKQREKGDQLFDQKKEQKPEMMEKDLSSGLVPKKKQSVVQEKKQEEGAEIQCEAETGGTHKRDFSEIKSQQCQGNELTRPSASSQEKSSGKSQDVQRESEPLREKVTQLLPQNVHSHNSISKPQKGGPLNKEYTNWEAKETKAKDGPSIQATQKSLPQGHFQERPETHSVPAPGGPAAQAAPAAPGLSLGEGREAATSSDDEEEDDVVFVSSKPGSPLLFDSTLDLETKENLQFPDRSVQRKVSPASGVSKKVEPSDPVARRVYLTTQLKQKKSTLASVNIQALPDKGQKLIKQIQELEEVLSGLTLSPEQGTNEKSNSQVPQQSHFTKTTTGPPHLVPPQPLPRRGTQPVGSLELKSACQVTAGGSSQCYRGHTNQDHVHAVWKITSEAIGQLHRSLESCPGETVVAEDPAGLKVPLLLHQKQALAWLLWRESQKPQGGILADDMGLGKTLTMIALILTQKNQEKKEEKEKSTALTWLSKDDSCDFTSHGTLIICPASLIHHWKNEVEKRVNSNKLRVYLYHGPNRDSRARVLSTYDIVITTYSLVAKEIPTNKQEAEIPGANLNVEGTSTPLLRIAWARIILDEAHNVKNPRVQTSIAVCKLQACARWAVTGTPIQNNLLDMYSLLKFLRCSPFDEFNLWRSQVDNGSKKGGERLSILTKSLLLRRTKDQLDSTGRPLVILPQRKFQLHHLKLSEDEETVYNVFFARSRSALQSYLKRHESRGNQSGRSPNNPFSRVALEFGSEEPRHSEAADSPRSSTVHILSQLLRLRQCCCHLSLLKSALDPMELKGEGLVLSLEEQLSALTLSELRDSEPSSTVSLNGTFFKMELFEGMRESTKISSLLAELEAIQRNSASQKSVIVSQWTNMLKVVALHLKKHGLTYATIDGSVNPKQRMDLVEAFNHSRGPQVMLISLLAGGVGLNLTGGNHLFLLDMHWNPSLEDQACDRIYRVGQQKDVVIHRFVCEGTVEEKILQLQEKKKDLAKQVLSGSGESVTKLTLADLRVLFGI
UniProt P43897: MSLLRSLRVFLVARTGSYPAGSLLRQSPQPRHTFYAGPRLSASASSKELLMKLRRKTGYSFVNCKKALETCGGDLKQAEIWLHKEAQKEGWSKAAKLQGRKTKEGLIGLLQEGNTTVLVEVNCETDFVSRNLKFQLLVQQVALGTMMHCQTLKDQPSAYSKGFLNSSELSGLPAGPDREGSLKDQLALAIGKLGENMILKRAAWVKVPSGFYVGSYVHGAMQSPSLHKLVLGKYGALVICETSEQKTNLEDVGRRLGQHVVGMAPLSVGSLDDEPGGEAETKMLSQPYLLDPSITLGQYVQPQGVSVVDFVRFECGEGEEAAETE
UniProt Q9BSJ2, whole entry, looked up: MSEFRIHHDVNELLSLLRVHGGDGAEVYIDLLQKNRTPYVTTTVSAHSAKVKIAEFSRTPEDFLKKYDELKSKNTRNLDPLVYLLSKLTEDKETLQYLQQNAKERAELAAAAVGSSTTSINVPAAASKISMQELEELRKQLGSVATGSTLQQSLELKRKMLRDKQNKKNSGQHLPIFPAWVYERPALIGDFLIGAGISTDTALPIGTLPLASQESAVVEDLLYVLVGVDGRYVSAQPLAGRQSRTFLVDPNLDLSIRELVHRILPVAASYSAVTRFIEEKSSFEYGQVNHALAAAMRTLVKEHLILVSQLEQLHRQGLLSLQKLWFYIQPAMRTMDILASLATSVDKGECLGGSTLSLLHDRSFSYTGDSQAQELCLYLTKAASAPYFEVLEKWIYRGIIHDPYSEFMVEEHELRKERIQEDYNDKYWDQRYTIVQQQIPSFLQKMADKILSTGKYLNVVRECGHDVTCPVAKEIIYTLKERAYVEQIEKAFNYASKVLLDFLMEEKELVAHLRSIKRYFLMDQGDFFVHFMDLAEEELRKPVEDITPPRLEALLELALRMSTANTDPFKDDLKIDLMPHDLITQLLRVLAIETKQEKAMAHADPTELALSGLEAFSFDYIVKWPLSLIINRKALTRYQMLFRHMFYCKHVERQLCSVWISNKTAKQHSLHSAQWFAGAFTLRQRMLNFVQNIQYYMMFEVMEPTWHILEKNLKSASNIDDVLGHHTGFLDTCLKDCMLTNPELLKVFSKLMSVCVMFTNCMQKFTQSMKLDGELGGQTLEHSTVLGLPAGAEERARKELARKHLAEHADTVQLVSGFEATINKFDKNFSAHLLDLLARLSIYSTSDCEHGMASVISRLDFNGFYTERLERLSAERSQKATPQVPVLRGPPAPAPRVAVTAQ
UniProt Q9BRA2: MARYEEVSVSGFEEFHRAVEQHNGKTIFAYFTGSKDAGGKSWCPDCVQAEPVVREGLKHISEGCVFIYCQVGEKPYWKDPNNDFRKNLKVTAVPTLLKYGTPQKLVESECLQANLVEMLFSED

Compound: Cc1cc(ccc1-c1ccccc1)C(=O)N1CCCN(CC1)C(=O)CCl [compound 10]
Test: probe-labelled cysteine peptide fold change vs DMSO (competition) (log2 fold change); higher = less target engagement (more negative = stronger competition)
Conditions: 10 µM; THP-1; incubation time: 4 h
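Also: competitive profiling in live THP-1 cells: cysteine peptides tagged with an iodoacetamide desthiobiotin (IA-DTB) probe, intensity after compound treatment relative to DMSO-treated cells.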

Compared with “TUFM_P49411_222_ELLTEFGYKGEETPVIVGSALCALEGRDPELGLK (UniProt P49411)”, “TTLL12_Q14166_528_QVHCEEFIPEFEK (UniProt Q14166)” is higher in “probe-labelled cysteine peptide fold change” value: -0.102 for the first, -0.0693 for the second.

First: TRUB1_Q8WWH5_269_ELSSCANVLELTR (UniProt Q8WWH5)
Second: TUBB6_Q9BUF5_127+129_ECEHCDCLQGFQLTHSLGGGTGSGMGTLLISK (UniProt Q9BUF5)
The “probe-labelled cysteine peptide fold change” value of the first is lower: -0.038 for the first, 0.132 for the second.

First: TUT4_Q5TAX3_458_VPVVVCR (UniProt Q5TAX3)
Second: TRRAP_Q9Y4A5_2876_EALVQVEVSCPK (UniProt Q9Y4A5)
The “probe-labelled cysteine peptide fold change” value of the first is lower: 0.0919 for the first, 0.176 for the second.

Compared with “TXLNG_Q9NUQ3_101_NLVSPAYCTQESR (UniProt Q9NUQ3)”, “TRPM7_Q96QT4_53_QHACFTASLAMK (UniProt Q96QT4)” is higher in “probe-labelled cysteine peptide fold change” value: -0.418 for the first, -0.0253 for the second.

First: TRRAP_Q9Y4A5_1868_LMTFAWPCLLSK (UniProt Q9Y4A5)
Second: TUBB6_Q9BUF5_129_ECEHCDCLQGFQLTHSLGGGTGSGMGTLLISK (UniProt Q9BUF5)
The “probe-labelled cysteine peptide fold change” value of the first is lower: -0.15 for the first, -0.0498 for the second.

Compared with “TTF2_Q9UNY4_1118_FVCEGTVEEK (UniProt Q9UNY4)”, “TXNIP_Q9H3M7_49_ILACGVAK (UniProt Q9H3M7)” is higher in “probe-labelled cysteine peptide fold change” value: -0.115 for the first, 0.142 for the second.

First: TTC37_Q6PGP7_600_DFNCWESLGEAYLSR (UniProt Q6PGP7)
Second: TTC27_Q6P3X3_514_KETPSLYCLLGDVLGDHSCYDK (UniProt Q6P3X3)
The “probe-labelled cysteine peptide fold change” value of the first is higher: 0.129 for the first, -0.155 for the second.

Going from “TSFM_P43897_315_FECGEGEEAAETE (UniProt P43897)” to “TRMT2A_Q8IZ69_580_AVAVDLFPQTPHCEMLILFER (UniProt Q8IZ69)”, the “probe-labelled cysteine peptide fold change” value rises from -0.0477 to 0.118.

Going from “TTC28_Q96AY4_274_TLGDQTGECR (UniProt Q96AY4)” to “TUBGCP2_Q9BSJ2_733_SASNIDDVLGHHTGFLDTCLK (UniProt Q9BSJ2)”, the “probe-labelled cysteine peptide fold change” value falls from 0.126 to -0.0324.

Compared with “TTC7A_Q9ULT0_77_LLLAEALLEQCLK (UniProt Q9ULT0)”, “TSC2_P49815_791_EMVYCLEQGLIHR (UniProt P49815)” is higher in “probe-labelled cysteine peptide fold change” value: 0.0287 for the first, 0.0971 for the second.

Compared with “TRRAP_Q9Y4A5_2513_STPIGTSCQGAMLPSITNVINLADSHDR (UniProt Q9Y4A5)”, “TSPYL5_Q86VY4_79_LGEEAACR (UniProt Q86VY4)” is lower in “probe-labelled cysteine peptide fold change” value: 0.223 for the first, -0.225 for the second.

Going from “TST_Q16762_64_HVPGASFFDIEECR (UniProt Q16762)” to “TXNDC17_Q9BRA2_46_SWCPDCVQAEPVVR (UniProt Q9BRA2)”, the “probe-labelled cysteine peptide fold change” value falls from 0.141 to -0.0603.

Compared with “TSTA3_Q13630_112_VVSCLSTCIFPDK (UniProt Q13630)”, “TRPM2_O94759_693_AIGVFTECYR (UniProt O94759)” is higher in “probe-labelled cysteine peptide fold change” value: -0.0923 for the first, 0.122 for the second.

First: TTF2_Q9UNY4_37_ADTCSFVR (UniProt Q9UNY4)
Second: TSFM_P43897_64_TGYSFVNCK (UniProt P43897)
The “probe-labelled cysteine peptide fold change” value of the first is higher: 0.205 for the first, 0.0248 for the second.

Going from “TTC21B_Q7Z4L5_72_QDVSLCSLLALIYAHK (UniProt Q7Z4L5)” to “TSSC4_Q9Y5U2_99_DIFDCLEGAAR (UniProt Q9Y5U2)”, the “probe-labelled cysteine peptide fold change” value falls from 0.0834 to -0.245.

Going from “TSFM_P43897_71_ALETCGGDLK (UniProt P43897)” to “TTC14_Q96N46_371_AIEDFELALENCPTHR (UniProt Q96N46)”, the “probe-labelled cysteine peptide fold change” value rises from 0.0543 to 0.0868.

First: TTF2_Q9UNY4_522_SACQVTAGGSSQCYR (UniProt Q9UNY4)
Second: TTC39C_Q8N584_463_ALPNCSFPNLQR (UniProt Q8N584)
The “probe-labelled cysteine peptide fold change” value of the first is higher: 0.0142 for the first, -0.0698 for the second.

Compared with “TUBGCP4_Q9UGJ1_151_IHGCQILETVYK (UniProt Q9UGJ1)”, “TTF2_Q9UNY4_648_DDSCDFTSHGTLIICPASLIHHWK (UniProt Q9UNY4)” is higher in “probe-labelled cysteine peptide fold change” value: -0.134 for the first, 0.108 for the second.

Compared with TTK_P33981_229_NNSCDSR (UniProt P33981), “TSEN54_Q7Z6J9_277_EGVGCSWESGR (UniProt Q7Z6J9)” is lower in “probe-labelled cysteine peptide fold change” value: 0.592 for the first, -0.288 for the second.
